Laboratory results reported in PMC3579733.
Results are given in words; binding and its absence hold for the method and conditions named. In cells and extracts the contact can be indirect. Here binding means that the protein was enriched with, or labelled near, the bait; the list need not be complete. No binding means not detected with the bait.

How the values were obtained:
Experiment in all cases: affinity purification with mass spectrometry; one-step and two-step bait fishing taken together (final data set; both methods applied to all baits); the place does not tell which of the two gave the result
[1] = molecular target: T1, CheF1 (Halobacterium salinarum R1 (DSM 671)) (UniProt B0R4J3)
T1 sequence: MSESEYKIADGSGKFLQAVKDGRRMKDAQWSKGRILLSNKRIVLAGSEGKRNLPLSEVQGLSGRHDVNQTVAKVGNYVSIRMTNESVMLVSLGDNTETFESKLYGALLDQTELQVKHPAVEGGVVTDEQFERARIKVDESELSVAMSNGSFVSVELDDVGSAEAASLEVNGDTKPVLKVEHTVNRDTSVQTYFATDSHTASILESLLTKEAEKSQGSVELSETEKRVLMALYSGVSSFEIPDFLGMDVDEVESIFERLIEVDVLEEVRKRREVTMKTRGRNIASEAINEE

[2] = molecular target: T2, CheF2 (Halobacterium salinarum R1 (DSM 671)) (UniProt B0R4J4)
T2 sequence: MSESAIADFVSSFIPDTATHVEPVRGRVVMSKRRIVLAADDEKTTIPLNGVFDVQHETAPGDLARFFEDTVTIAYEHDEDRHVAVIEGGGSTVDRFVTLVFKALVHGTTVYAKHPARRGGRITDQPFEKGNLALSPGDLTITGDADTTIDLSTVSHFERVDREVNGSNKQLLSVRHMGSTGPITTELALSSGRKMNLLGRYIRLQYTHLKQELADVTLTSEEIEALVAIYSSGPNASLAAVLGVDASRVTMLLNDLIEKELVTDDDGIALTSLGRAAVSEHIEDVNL

[3] = molecular target: T3, CheR (Halobacterium salinarum R1 (DSM 671)) (UniProt B0R4J5)
T3 sequence: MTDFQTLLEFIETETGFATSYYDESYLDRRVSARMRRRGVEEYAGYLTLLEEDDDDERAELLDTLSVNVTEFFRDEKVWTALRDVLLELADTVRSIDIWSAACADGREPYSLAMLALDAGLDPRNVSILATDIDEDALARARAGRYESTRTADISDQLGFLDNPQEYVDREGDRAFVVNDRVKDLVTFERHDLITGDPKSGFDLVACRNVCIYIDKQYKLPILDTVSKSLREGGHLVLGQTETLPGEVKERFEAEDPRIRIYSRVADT

Measured: binding

B1: Htr7 (receptor, UniProt B0R6A6 1-545)
chain: MSGAAVFVDAVVAPLGDAVGAIGFGAAAALGYRNYRDTDAEAAFWMAFTFASLLGVTWTVSLMLEKAGVATQIFNLATGPLMATTVAVFAIGGTATLAIVEDMEALVEERAQRRQEAEEERAEAERAREKAEQKQAEAERQTAEAESAKQDARERSAEIEQLAADLESQATEVGATLEAASDGDLTARVDATTDNAEIAEVATVVNDMLTTMERTIDEIQGFSTNVTTASREATAGAKEIQDASQTVSESVQEIAAGTDDQREQLESVAEEMDSYSATVEEVAATAQSVADTAADTTDVATAGKQTAEDAIDAIDAVQETMQTTVANVDALEDLTTEIDDIAELISDIAEQTNMLALNANIEAARAGSGGGSNGDGFAVVADEVKELATESQRSAKDIAELIEEVQSQTATTVEEIRVAEQRVNDGAAAVEETVDAFGAVTENIQETTDGVQEISQAMDEQAQRSERVVSSVDDIATISQATADRAENVSAASEEQTASITEVTSSLQSLAAQADTLEDRLNEFRTEATGTAHGEATDAPAGQSD
no binding: all assays above
